Taken from: PubChem BioAssay AID720505 (Drosophila RNAi Screening Center, 2013)
Purpose: 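Genes needed for store-operated calcium entry in fly cells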 (primary screen). Cell system: Drosophila S2R+ cells. Knock-down reagent: long dsRNA against Drosophila genes. Conditions: thapsigargin (2 µM) in calcium-free buffer to empty internal stores, then 2 mM calcium added back. Measurement: 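Stores emptied by 2 µM thapsigargin without calcium, then 2 mM calcium re-added; fluo-4 fluorescence followed by FLIPR in 384-well plates, per-well averaged endpoint, raw; two screen passes, some wells retested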. Direction: calcium signal and retest calcium signal: higher = more calcium entry after store depletion. Rule for the call: 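About 1500 genes called as lowering calcium entry, by varying amounts, judged against per-plate control wells with STIM1 as positive and Rho1 as negative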. Calls: active = called as lowering calcium entry; inactive = not called.
The screen tested about 20,000 reagents; shown is an unselected part of those with a known target gene and a result. Of all reagents, about 2,100 (10%) got an active call. 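Raw plate signals without normalisation; calls rest on control-based scores that were not deposited; replicate 2 separates called from uncalled poorly.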 The numbers tell different reagents against one gene apart. A plus sign joins genes that one reagent is predicted to hit. Reagent sequences are not shown. Not given: the amount of reagent, the time to read-out.

gene	reagent no.	calcium signal, replicate 1	calcium signal, replicate 2	retest calcium signal, replicate 1	retest calcium signal, replicate 2	activity call
CG13707	1	95.8	78.6			inactive
Ktch	1	151	159			inactive
MED14	1	57	38.3			active
CG14115	1	69.2	75.1			active
sNPF-R	1	101	89.8			inactive
Stim	1	60.9	52.4			active
RpLP0	1	67.7	122			active
RpLP0	2	49	164			active
CG31418	1	129	103			inactive
ham	1	60.7	109			active
ham	2	78.1	102			active
ham	3	70.9	105	76.7	73.8	inactive
ham	4	68.5	83.5			active
Josd	1	291	77.4			inactive
rogdi	1	98.8	96.7			inactive
Eh	1	166	129			inactive
Rab9	1	139	118			inactive
janB	1	188	127			inactive
Or13a	1	102	132			inactive
Gr22d	1	148	134			inactive
Obp56h	1	142	129			inactive
CG10803	1	88.8	168			inactive
CG9175	1	109	268			inactive
Zip71B	1	102	156			inactive
sens	1					inactive
sens	2	93.7	92.4			inactive
ATPsynG	1	119	147	68.2	81.3	inactive
Vps60	1	104	201			inactive
Arr1	1	142	94.5			inactive
Rip11	1	197	150			inactive
CR33221	1	127	150			inactive
OtopLc	1	164	140			inactive
OtopLc	2	65.7	229			active
OtopLc	3	179	109			inactive
CG42288	1	125	227			inactive
CG11980	1	178	125			inactive
Cep89	1	113	174			inactive
qkr58E-3	1	240	89.5			inactive
CG14630	1	96.1	142			inactive
CG14630	2	74.5	136			inactive
Wnt2	1	105	98.6			inactive
Wnt2	2	137	176			inactive
inaC	1	112	90			inactive
asRNA:CR43468 + Lfg	1	127	188			inactive
CG10031	1	168	121			inactive
Rpn3	1	64.8	92.3			active
Spn100A	1	119	159			inactive
Klc	1	96.5	110			inactive
eIF4E3	1	65.8	106			active
CG15534	1	126	140			inactive
CG42633	1	143	88.1			inactive
TotB	1	197	151			inactive
Rbsn-5	1	118	158			inactive
TwdlH	1	59.6	77			active
CG18265	1	91	208			inactive
CG7369	1	145	72.4	172	147	inactive

Part of the list above in another layout:
| gene | reagent no. | calcium signal, replicate 1 | calcium signal, replicate 2 | retest calcium signal, replicate 1 | retest calcium signal, replicate 2 | activity call |
| --- | --- | --- | --- | --- | --- | --- |
| RpLP0 | 1 | 67.7 | 122 | – | – | active |
| RpLP0 | 2 | 49 | 164 | – | – | active |
| CG31418 | 1 | 129 | 103 | – | – | inactive |
